# Counter-ions that a name gives are not always drawn. Like-named read-outs stand apart in the source and are kept apart here. Screen size: about 5,300 compounds; about 130 (2.5%) showed an effect of 50% or more. The list shows a part of the results.
# System: M. mycetomatis strain mm55
# Conditions: primary screen, metabolic activity vs growth control, 96 h, 2 µM, inhibitor
Compound,% viability [%],% viability (Madurella mycetomatis metabolic activity at 2µM (%)) [%]
"COCc1c(-c2ccc(NC(=O)Nc3cc(C(F)(F)F)ccc3F)c(F)c2)c2c(N)ncnn2c1CN1CCOCC1 [ONC0002053, actb1003]",73.33,
"CCC(=O)N1CCN(c2ccc(-n3c(=O)ccc4cnc5ccc(-c6cnc7ccccc7c6)cc5c43)cc2C(F)(F)F)CC1 [ONC0004952, torin 1]",53.42,
"CO/N=C(\C(=O)N[C@@H]1C(=O)N2C(C(=O)OCOC(=O)C(C)(C)C)=C(/C=C\c3scnc3C)CS[C@H]12)c1csc(N)n1 [ONC0004007, cefditorin pivoxil]",66.26,
"c1ccc2c(Cc3c[nH]c4ccccc34)c[nH]c2c1 [ONC0003447, diindolylmethane]",68.22,
"COc1ccc(OC)c2c(=S)c3ccccc3[nH]c12 [ONC0001744, nsc625987]",58.92,
"Cc1sc(N)c(C(=O)c2cccc(C(F)(F)F)c2)c1C [ONC0001564, pd81723]",126,
"COC(=O)Nc1nc2ccc(C(=O)c3ccccc3)cc2[nH]1 [ONC0000696, mebendazole]",123.4,
"CC(C)CCC[C@@H](C)[C@H]1CC[C@H]2[C@@H]3CCC4=CC(=NO)CC[C@]4(C)[C@H]3CC[C@]12C [ONC0001049, olesoxime]",89.58,
"O=c1[nH]ccc2cc(OC3CCNCC3)ccc12 [ONC0001198, sar407899 hydrochloride]",94.6,
"Cc1[nH]c2ccccc2c1CCNC(=O)c1cccs1 [ONC0005173, ck636]",145.2,
"N=C(N)SCCc1ccc(OCc2ccc([N+](=O)[O-])cc2)cc1 [ONC0000862, kbr7943]",96,
"Cn1c(NCCN(CCO)CCCc2ccc([N+](=O)[O-])cc2)cc(=O)n(C)c1=O [ONC0002304, nifekalant]",75.97,
"N=C(N)c1ccc(OCCCCCOc2ccc(C(=N)N)cc2)cc1 [ONC0003359, pentamidine isethionate]",71.33,
"O=C(OC[C@H]1O[C@@H](OC(=O)c2cc(O)c(O)c(OC(=O)c3cc(O)c(O)c(O)c3)c2)[C@H](OC(=O)c2cc(O)c(O)c(OC(=O)c3cc(O)c(O)c(O)c3)c2)[C@@H](OC(=O)c2cc(O)c(O)c(OC(=O)c3cc(O)c(O)c(O)c3)c2)[C@@H]1OC(=O)c1cc(O)c(O)c(OC(=O)c2cc(O)c(O)c(O)c2)c1)c1cc(O)c(O)c(OC(=O)c2cc(O)c(O)c(O)c2)c1 [ONC0002461, tannic acid]",87.42,
"N[C@@H]1C[C@H]1c1ccccc1 (racemic) [ONC0000562, tranylcypromine sulfate]",104.4,
"CC(C)Cc1ccc(C(C)C(=O)NCCO)cc1 (stereo not drawn) [ONC0003533, mabuprofen]",118.1,
"CCCCC(=O)O[C@H]1CC[C@H]2[C@@H]3CCc4cc(O)ccc4[C@H]3CC[C@]12C [ONC0000727, estradiol valerate]",49.76,
"N=C(N)NCCNS(=O)(=O)c1cccc2cnccc12 [ONC0005629, ha1004hcl]",74.09,
"O=C1OC2(c3cc(I)c(O)c(I)c3Oc3c2cc(I)c(O)c3I)c2c(Cl)c(Cl)c(Cl)c(Cl)c21 [ONC0002798, rose bengal sodium salt]",,83.07

# Whole records, quoted from the list:
# N[C@@H]1C[C@H]1c1ccccc1 (racemic) [ONC0000562, tranylcypromine sulfate] in the list: % viability [%]: 104.4
# CC(C)CCC[C@@H](C)[C@H]1CC[C@H]2[C@@H]3CCC4=CC(=NO)CC[C@]4(C)[C@H]3CC[C@]12C [ONC0001049, olesoxime] in the list: % viability [%]: 89.58

# (further entries)

Compound,% viability [%],% viability (Madurella mycetomatis metabolic activity at 2µM (%)) [%]
"O=C(NC1CCNCC1)[C@@H]1CC[C@@H]2CN1C(=O)N2OS(=O)(=O)O [ONC0001257, relebactam]",62.24,
"NC(N)=Nc1nc(CSCCN/C=N/S(=O)(=O)c2ccc(Br)cc2)cs1 [ONC0001324, ebrotidine]",88.15,
"CCc1ccc(C2=CC(C)(C)Sc3ccc(C#Cc4ccc(C(=O)O)cc4)cc32)cc1 [ONC0001310, agn 194310]",93.65,
"NC(=NCc1ccccc1)NC(=O)c1nc(Cl)c(N)nc1N [ONC0005575, benzamil hcl]",53.65,
"Cc1ccc(Nc2c(F)cccc2Cl)c(CC(=O)O)c1 [ONC0004767, lumiracoxib cox189]",100.2,
"O=C(O)c1cc(O)c2c(c1)C(=O)c1cccc(O)c1C2=O [ONC0004645, rheic acid]",83.66,
"CN1CCc2c(c3ccccc3n2Cc2ccccc2)C1 [ONC0002361, mebhydrolin]",82.22,
"Fc1ccc(C(c2ccc(F)cc2)N2CCN(C/C=C/c3ccccc3)CC2)cc1 [ONC0004452, flunarizine]",108.3,
"Oc1ccc([C@H]2COc3cc(O)ccc3C2)cc1 [ONC0004406, equol]",119.9,
"O=c1cc(-c2cccc3c2Sc2ccccc2S3)oc(N2CCOCC2)c1 [ONC0000134, ku55933]",87.24,
"c1ccc(CNCc2ccc(CN3CCCNCCNCCCNCC3)cc2)nc1 [ONC0001477, amd3465]",65.25,
"C[C@H](c1ccc2ccc(O[C@H]3CC[C@@H](C(F)(F)F)CC3)c(C(F)(F)F)c2c1)N1C2CCC1CC(C(=O)O)C2 (stereo partly drawn) [ONC0002093, autotaxin modulator 1]",88,
"Cc1ncc(CNC(=O)N(CCCl)N=O)c(N)n1 [ONC0005389, nimustine]",105.1,
"Cn1nnc(-c2ccc(-c3ccc(N4C[C@H](COP(=O)(O)O)OC4=O)cc3F)cn2)n1 [ONC0001833, tedizolid phosphate]",90.42,
"Oc1cccc(-c2c3nc(c(-c4cccc(O)c4)c4ccc([nH]4)c(-c4cccc(O)c4)c4nc(c(-c5cccc(O)c5)c5ccc2[nH]5)CC4)C=C3)c1 [ONC0001003, temoporfin]",75.19,
"Cc1cccc(C(=O)O)c1O [ONC0003270, hydroxytoluic acid]",66.55,
Cc1ccc2c(Br)cc(Br)c(OC(=O)c3ccccc3)c2n1 [Broxaldine],3.407,
"NCCNC(=O)c1ccc(Cl)cn1 [ONC0003049, lazabemide]",116.4,
"Cc1cc2c(N3CCCC3)nc(N3CCCC3)nc2n1C [ONC0003662, pnu89843]",57.55,

Compound,% viability [%],% viability (Madurella mycetomatis metabolic activity at 2µM (%)) [%]
"O=C(O)[C@H](O)[C@@H](O)[C@H](O)[C@H](O)C(O)CO (stereo partly drawn) [ONC0002756, sodium glucoheptonate dihydrate]",84.97,
"O=C(Nc1ccc(Cl)nc1)c1ccc(Cl)cc1 [ONC0002468, ica110381]",70.91,
"NC1=N[C@H]2[C@H](CCCCC(=O)O)SC[C@H]2N1 [ONC0003635, 2iminobiotin]",86.51,
"N=C(N)NC(=N)Nc1ccccc1 [ONC0000154, 1phenylbiguanide]",91.38,
"CCc1nc2ccc(Cl)cn2c1C(=O)NCc1ccc(N2CCC(c3ccc(OC(F)(F)F)cc3)CC2)cc1 [ONC0003730, q203]",122.5,
"Cc1cc(C(=O)NOCCO)c(Nc2ccc(I)cc2F)n(C)c1=O [ONC0005274, azd8330]",176.6,
"CCOC(=O)C1=C(N)Oc2ccc(Br)cc2[C@H]1[C@H](C#N)C(=O)OCC [ONC0004730, ha141]",132.5,
"Cn1cnc2c(NCc3ccccc3)nc(NCCO)nc21 [ONC0001590, olomoucine]",82.51,
"CC1(C)S[C@@H]2[C@H](NC(=O)[C@H](N)c3ccc(O)cc3)C(=O)N2[C@H]1C(=O)O [ONC0003222, amoxicillin]",90.48,
"CC(C)N1Cc2cc(S(C)(=O)=O)ccc2N(CCN2CC=C(c3c[nH]c4cc(F)ccc34)CC2)S1(=O)=O [ONC0002623, ly393558]",70.5,
"COc1cccc2c1C(=O)c1c(O)c3c(c(O)c1C2=O)C[C@@](O)(C(=O)CO)C[C@@H]3O[C@H]1C[C@H](N)[C@H](O)[C@H](C)O1 [ONC0000085, doxorubicin]",96.01,
"O=C(c1c2ccccc2cc2ccccc12)N1CCC(N2CCC[C@@H](C(=O)N3CCOCC3)C2)CC1 [ONC0004304, cp640186 hydrochloride]",72.72,
"OCCOCCN1CCN(C2=Nc3ccccc3Sc3ccccc32)CC1 [ONC0005533, quetiapine fumarate]",98.85,
"Cc1nc(Nc2cnn(C3CCNCC3)c2)nc2c1N(C)C(=O)c1cc3ccccc3cc1N2C [ONC0003623, hth01015]",63.72,
"Cc1c(N)nc([C@H](CC(N)=O)NC[C@H](N)C(N)=O)nc1C(=O)N[C@H](C(=O)N[C@H](C)[C@@H](O)[C@H](C)C(=O)N[C@H](C(=O)NCCc1nc(-c2nc(C(=O)NCCC[S+](C)C)cs2)cs1)[C@@H](C)O)[C@@H](O[C@@H]1O[C@@H](CO)[C@@H](O)[C@H](O)[C@@H]1O[C@H]1O[C@H](CO)[C@@H](O)[C@H](OC(N)=O)[C@@H]1O)c1c[nH]cn1 [ONC0004316, bleomycin sulfate]",4.137,
"Nc1nc2c(ncn2[C@@H]2O[C@H](CO)[C@@H](O)[C@H]2O)c(=O)[nH]1 [ONC0005019, guanosine]",116.9,
"Oc1cccc2cccnc12 [ONC0000590, oxyquinoline hemisulfate]",81.18,
"C[C@H]1O[C@H](O[C@H]2[C@H](O)[C@@H](O)[C@@H](O[C@H]3[C@H](O)[C@@H](O)[C@H](O)O[C@@H]3CO)O[C@@H]2CO)[C@H](O)[C@@H](O)[C@@H]1N[C@H]1C=C(CO)[C@@H](O)[C@H](O)[C@H]1O [ONC0004258, acarbose]",73.72,
"Cc1cc2c(cc1S(N)(=O)=O)S(=O)(=O)CCC2 [ONC0005435, meticrane]",136.3,

# Source: PMC12670160, “A drug-repurposing screen of FDA- and EMA-approved drugs identifies two NF-κB inhibitors active against eumycetoma” (Journal of Antimicrobial Chemotherapy, 2025)
